Assay results from article PMC5910412.
These are yes or no findings as the source states them, for the method shown. In cells and extracts the contact can be indirect. Here binding means that the protein was enriched with, or labelled near, the bait; the list need not be complete.

Amino acid sequences for entries named in this document (tags omitted).
UniProt P46940: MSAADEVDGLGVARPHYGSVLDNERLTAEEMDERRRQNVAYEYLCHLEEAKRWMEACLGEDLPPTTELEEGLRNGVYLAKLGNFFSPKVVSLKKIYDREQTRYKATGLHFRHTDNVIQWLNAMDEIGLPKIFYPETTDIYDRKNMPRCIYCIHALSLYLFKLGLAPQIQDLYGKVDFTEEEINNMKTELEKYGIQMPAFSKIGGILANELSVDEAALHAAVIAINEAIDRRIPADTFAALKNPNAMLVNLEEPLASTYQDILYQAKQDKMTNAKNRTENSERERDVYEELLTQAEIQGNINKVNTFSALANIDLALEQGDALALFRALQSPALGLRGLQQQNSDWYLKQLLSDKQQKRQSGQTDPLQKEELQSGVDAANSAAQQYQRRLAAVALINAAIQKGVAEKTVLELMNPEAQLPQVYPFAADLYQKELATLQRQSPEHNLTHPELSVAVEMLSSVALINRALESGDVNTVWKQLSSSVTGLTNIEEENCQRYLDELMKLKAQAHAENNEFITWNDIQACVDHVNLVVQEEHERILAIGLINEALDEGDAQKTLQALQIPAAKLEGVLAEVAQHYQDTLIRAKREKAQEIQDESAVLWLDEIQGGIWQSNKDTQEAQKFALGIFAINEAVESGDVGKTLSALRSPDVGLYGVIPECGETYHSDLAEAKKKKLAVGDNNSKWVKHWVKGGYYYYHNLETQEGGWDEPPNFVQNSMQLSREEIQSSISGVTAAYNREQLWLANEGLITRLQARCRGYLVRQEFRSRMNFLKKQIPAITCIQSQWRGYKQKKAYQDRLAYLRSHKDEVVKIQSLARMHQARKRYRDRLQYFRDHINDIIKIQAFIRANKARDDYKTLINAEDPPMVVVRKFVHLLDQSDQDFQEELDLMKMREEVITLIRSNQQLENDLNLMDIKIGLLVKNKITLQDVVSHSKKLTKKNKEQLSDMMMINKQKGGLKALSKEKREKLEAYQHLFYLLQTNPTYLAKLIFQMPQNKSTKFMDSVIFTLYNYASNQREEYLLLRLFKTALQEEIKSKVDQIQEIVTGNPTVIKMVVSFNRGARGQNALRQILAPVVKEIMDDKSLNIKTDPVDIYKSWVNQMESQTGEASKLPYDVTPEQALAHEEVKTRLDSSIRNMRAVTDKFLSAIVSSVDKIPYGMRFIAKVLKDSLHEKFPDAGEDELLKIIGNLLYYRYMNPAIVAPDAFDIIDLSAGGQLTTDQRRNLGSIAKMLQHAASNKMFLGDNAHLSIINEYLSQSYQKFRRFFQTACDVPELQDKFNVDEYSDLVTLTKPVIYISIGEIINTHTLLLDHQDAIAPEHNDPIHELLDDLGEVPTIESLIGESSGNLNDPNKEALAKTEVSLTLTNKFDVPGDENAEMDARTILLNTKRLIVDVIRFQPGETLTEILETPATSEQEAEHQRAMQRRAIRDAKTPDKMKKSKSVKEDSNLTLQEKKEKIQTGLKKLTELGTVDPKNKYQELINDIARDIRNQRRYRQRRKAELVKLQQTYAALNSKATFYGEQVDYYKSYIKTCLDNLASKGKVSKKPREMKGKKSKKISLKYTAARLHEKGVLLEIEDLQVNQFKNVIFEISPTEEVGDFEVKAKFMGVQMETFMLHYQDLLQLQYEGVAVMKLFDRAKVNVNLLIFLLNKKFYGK

Target: T1, MISP (mitotic interactor and substrate of Plk1), bait of the co-IP/mass spectrometry screen (UniProt Q8IVT2)
T1 sequence: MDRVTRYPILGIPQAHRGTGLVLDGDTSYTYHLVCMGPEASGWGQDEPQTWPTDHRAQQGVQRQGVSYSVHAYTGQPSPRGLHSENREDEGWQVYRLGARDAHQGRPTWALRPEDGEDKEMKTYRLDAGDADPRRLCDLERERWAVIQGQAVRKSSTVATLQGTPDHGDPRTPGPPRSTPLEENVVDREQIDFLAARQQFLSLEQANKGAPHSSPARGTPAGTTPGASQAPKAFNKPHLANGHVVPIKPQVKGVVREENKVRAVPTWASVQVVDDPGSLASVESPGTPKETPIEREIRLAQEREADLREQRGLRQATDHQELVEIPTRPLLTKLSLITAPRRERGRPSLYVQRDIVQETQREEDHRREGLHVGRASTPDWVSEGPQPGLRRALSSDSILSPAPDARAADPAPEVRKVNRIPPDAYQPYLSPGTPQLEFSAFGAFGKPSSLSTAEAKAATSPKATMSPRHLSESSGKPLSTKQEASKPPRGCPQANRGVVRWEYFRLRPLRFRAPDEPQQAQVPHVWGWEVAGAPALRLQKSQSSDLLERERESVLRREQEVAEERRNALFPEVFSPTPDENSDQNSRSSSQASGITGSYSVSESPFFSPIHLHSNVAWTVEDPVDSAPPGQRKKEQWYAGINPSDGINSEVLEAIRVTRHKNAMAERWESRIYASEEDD
Assay: affinity purification with mass spectrometry; co-immunoprecipitation followed by mass spectrometry with MISP as bait in mitotically blocked HeLa cells

endogenous IQGAP1 (from UniProt P46940 1-1657)
binding: binds
